Measurements published in publication doi:10.1101/2022.12.18.520920.

Target: BD-AtHB23ΔAHA (Arabidopsis thaliana)
Experiment: two-hybrid

B1: AD-MYB68 (protein, UniProt Q9FHP1 1-477)
chain: MMEIAYQPRIDSEIESLVERINPPRVCVDNDSDPECTLIKVDSANKYGILLDMVQVLADLDLVISKCYISSDGEWFMDVFHVTDQLGNKLTDRSLILYIQQAICSSRTGGITKEMQSNLKREVQQRHVSTEHTAFEITGINRPGLLSEISAVLSDIGCHVTAAVAWTHHERAAMVIYLEDGFNGGPIIDPIRKAQVKDHLDTVMEAHHIVGDVSHVVVRVVEAKGVPVGWAHTERRLHELMYGEGDYENCFDCDCFGDRCDALWRGRCERIHVTIEACNGYSMVNVKCRDRPKLLFDTVCALKELQFVVFHAVAGAKGSTAEQEYFIRKKNGGTLETEGQRERLRHCLVAAISRRASQGLKLEIRTENKMGLLSDVTRVVRENGLSITRAEMCTQGEIAVGSFYVTDVNGGETGPSEVEAVVRELGGAVVSAVKGVGMMPRRIGSTSDSVEQDKAKSSIGRMFWSKLERLSTSIRSL
  binding: binds

These are yes or no findings as the source states them, for the method shown. Binding calls can cover weak binding; strength is not graded here. Sequences can lack the tags named with a protein.
